Test results reported in patent US20180228743A1, “COMPOUNDS AND METHODS OF PROMOTING MYELINATION” (Case Western Reserve University, priority 2016, published 2018).

Tested on: EpiSC-derived OPCs
Experiment: High-throughput screening of 3,000 bioactive small molecules for MBP+ oligodendrocyte formation from OPCs
Format: cell-based, mouse
Conditions: 2 μM, 72 h, cells scored per well
Text: Plates were imaged on the Operetta High Content Imaging and Analysis system (PerkinElmer) and a set of 6 fields captured from each well resulting in an average of 1200 cells being scored per well. Analysis (PerkinElmer Harmony and Columbus software) began by identifying intact nuclei stained by DAPI; that is, those traced nuclei that were larger than 300 μm^2 in surface area. Each traced nucleus region was then expanded by 50% and cross-referenced with the […] (MBP) stain to identify oligodendrocyte nuclei, and from this the percentage of oligodendrocytes was calculated. In some experiments, the total process length of MBP+ oligodendrocytes was calculated as previously described.
EpiSC-derived OPCs were grown and expanded in poly-ornithine and laminin-coated flasks before harvesting for plating. Cells were dispensed in differentiation media supplemented with Noggin (R&D Systems; 100 ng/ml), Neurotrophin 3 (R&D Systems; 10 ng/ml), cAMP (Sigma; 50 μM), and IGF-1 (R&D Systems; 100 ng/ml)) using a Biotek EL406 Microplate Washer Dispenser (Biotek) equipped with 5 μL dispense cassette (Biotek), into poly-D-lysine/laminin (Sigma, L2020; 4 μg/ml)-coated sterile, 384-well, CellCarrier ultra plates (PerkinElmer), to a final density of 12,500 cells per well and allowed to attach for 45 min before addition of drug. A 3 mM stock of bioactive compound library in dimethylsulphoxide (DMSO) were prepared in an Abgene storage 384-well plate (ThermoFisher Scientific; AB1055). These were added to assay plates using a 50 nL solid pin tool attached to Janus automated workstation (Perkin Elmer), resulting in a final screening concentration of 2 μM. Cells were incubated at 37° C. for 1 hour and then T3 (Sigma; 40 ng/ml) was added to all wells except negative controls, to which FGF (20 ng/ml) was added instead. Negative controls and T3-alone were included in each assay plate. After incubation at 37° C. for 72 h, cells were fixed, washed and stained similar to 96-well OPC assay protocol, although all the washing steps were performed using a Biotek EL406 Microplate Washer Dispenser (Biotek) equipped with a 96-well aspiration manifold. Cells were stained with DAPI (Sigma; 1 μg/ml) and MBP antibody (Abcam, ab7349; 1:100). Plates were imaged on the Operetta High Content Imaging and Analysis system (PerkinElmer) and a set of 4 fields captured from each well resulting in an average of 700 cells being scored per well. Analysis was performed as in High-Content Imaging and Analysis, above. All plates for the primary screen were processed and analyzed simultaneously to minimize variability. Molecules causing more than 20% reduction in nuclear count relative to DMSO control wells were removed from consideration, and hits were called on the basis of largest fold-increase in percentage of MBP+ oligodendrocytes relative to DMSO controls within the same plate.

Row | Molecule | Total Cells
1 | Varenicline tartrate | 783
2 | N=C(N)c1ccc(OCCCCCOc2ccc(C(=N)N)cc2)cc1 [Pentamidine isethionate] | 758
3 | Cl.O[Si](CCCN1CCCCC1)(c1ccc(F)cc1)C1CCCCC1 (centres unmarked) [Hexahydro-sila-difenidol hydrochloride, p-fluoro analog] | 654
4 | Cc1cc(C)c(CNC(=O)c2cc(-c3ccc(CN4CCOCC4)cc3)cc3c2cnn3C2CCCC2)c(=O)[nH]1 [EPZ005687] | 610
5 | c1ccc(-c2ccc(C(c3ccccc3)n3ccnc3)cc2)cc1 (centres unmarked) [Bifonazole] | 820
6 | C[C@]12CC[C@@H]3c4ccc(O)cc4C[C@@H](CCCCCCCCC[S+]([O-])CCCC(F)(F)C(F)(F)F)[C@H]3[C@@H]1CC[C@@H]2O (some centres unmarked) [Fulvestrant] | 758
7 | Cl.Clc1ccc(N2CCN(Cc3c[nH]c4ncccc34)CC2)cc1 [L-745,870 hydrochloride] | 647
8 | FC(F)(F)c1ccc(/C=C/c2nc(COc3ccc(CCCCn4ccnn4)cc3)co2)cc1 [Mubritinib (TAK 165), Mubritinib] | 779
9 | Cc1cc(NC(=O)Nc2ccc(N(C)C)cc2)c2cc(F)cc(F)c2n1 [SB408124] | 704
10 | O=C(C1CCCCC1)N1CC(=O)N2CCc3ccccc3C2C1 (centres unmarked) [Praziquantel] | 728
11 | CCCCOc1ccc(OCCCN2CCOCC2)cc1 [Pramoxine HCl] | 755
12 | Clc1ccccc1C(c1ccccc1)(c1ccccc1)n1ccnc1 [Clotrimazole] | 748 and 666
13 | CCN(CC)CCCCCCCCOC(=O)c1cc(OC)c(OC)c(OC)c1.Cl [TMB-8 hydrochloride] | 758
14 | (±)-Vesamicol | 821
15 | CN1CCC[C@@H]1CCO[C@](C)(c1ccccc1)c1ccc(Cl)cc1 [Clemastine fumarate] | 449
16 | Clc1ccc(C(Cn2ccnc2)OCc2ccc(Sc3ccccc3)cc2)c(Cl)c1 (centres unmarked) [Fenticonazole Nitrate] | 687
17 | Clc1ccc(CSC(Cn2ccnc2)c2ccc(Cl)cc2Cl)cc1 (centres unmarked) [Sulconazole Nitrate] | 700
18 | OCCOCCN1CCN(C(c2ccccc2)c2ccc(Cl)cc2)CC1 (centres unmarked) [Hydroxyzine 2HCl] | 896
19 | Cc1cc(Nc2cc(CN3CCOCC3)c3nc(C)c(Cc4ccc(Cl)cc4F)n3n2)n[nH]1 [LY2784544] | 480
20 | CC(=O)N1CCN(c2ccc(OCC3COC(Cn4ccnc4)(c4ccc(Cl)cc4Cl)O3)cc2)CC1 (centres unmarked) [Ketoconazole] | 847
21 | Clc1ccc(C(Cn2ccnc2)OCc2csc3c(Cl)cccc23)c(Cl)c1 (centres unmarked) [Sertaconazole nitrate] | 777
22 | Cc1nnc(C(=O)NC(C)(C)c2nc(C(=O)NCc3ccc(F)cc3)c(O)c(=O)n2C)o1 [Raltegravir (MK-0518), Raltegravir] | 768
23 | CC(C(O)c1ccc(O)cc1)N1CCC(Cc2ccccc2)CC1 (centres unmarked) [lfenprodil Tartrate] | 693
24 | Clc1ccc(CCC(Cn2ccnc2)Sc2c(Cl)cccc2Cl)cc1 (centres unmarked) [Butoconazole nitrate] | 809

Same assay, conditions: 2 μM, 72 h, cells scored per well; HCl

Row | Molecule | Total Cells
25 | O=C(c1ccc(OCCN2CCCCC2)cc1)c1c(-c2ccc(O)cc2)sc2cc(O)ccc12 [Raloxifene HCl] | 777
26 | O=C1Cc2cc(CCN3CCN(c4nsc5ccccc45)CC3)c(Cl)cc2N1 [Ziprasidone HCl] | 1003

Same assay, conditions: 2 μM, 72 h, cells scored per well; hydrochloride monohydrate

Row | Molecule | Total Cells
27 | O=C1Cc2cc(CCN3CCN(c4nsc5ccccc45)CC3)c(Cl)cc2N1 [Ziprasidone hydrochloride monohydrate] | 851

Same assay, conditions: 2 μM, 72 h, cells scored per well; listed as Raloxifene hydrochloride, HCl

Row | Molecule | Total Cells
28 | O=C(c1ccc(OCCN2CCCCC2)cc1)c1c(-c2ccc(O)cc2)sc2cc(O)ccc12 [Raloxifene HCl] | 924

Same assay, conditions: 2 μM, 72 h, cells scored per well; listed as lfenprodil tartrate

Row | Molecule | Total Cells
29 | CC(C(O)c1ccc(O)cc1)N1CCC(Cc2ccccc2)CC1 (centres unmarked) [lfenprodil Tartrate] | 739

“And” between values parts separate entries of the source, which are not always exact repeats. Equal values may be shown once. Where a name gives a salt, the structure may show the parent alone.
